Among all 6,900 compounds or so, fewer than 10 were called active. Calls follow the shape of the dose curve; as a rule, active = well fitted curve in the direction sought with a large enough effect; inconclusive = small, poorly fitted or top-dose-only effect, or another doubt; inactive = no such curve, though single readings can be large or run the other way. Some of the results follow.
Target: Metallo-beta-lactamase type 2 (Klebsiella pneumoniae) (UniProt C7C422)
Assay: qHTS to identify inhibitors of the New Delhi Metallo-beta-lactamase (NDM): primary screen against the NCATS Gemini Collection; also: % of control where 0% means no effect
Conditions: NDM-1 enzyme, meropenem hydrolysis, absorbance 300 nm; at 38.4 µM (top of the series) unless noted
Outline: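 Meropenem hydrolysis (50 uM final) by 2 nM NDM-1 read as 300 nm absorbance after 30 min, following >30 min compound–enzyme preincubation in HEPES pH 7.0 with 1 uM ZnSO4 and 0.01% Tween20.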

Chains of the proteins cited; added tags and fusions are not shown. Lines headed by an entry give the natural chain unless they say otherwise; changes in a name come on top.
UniProt C7C422: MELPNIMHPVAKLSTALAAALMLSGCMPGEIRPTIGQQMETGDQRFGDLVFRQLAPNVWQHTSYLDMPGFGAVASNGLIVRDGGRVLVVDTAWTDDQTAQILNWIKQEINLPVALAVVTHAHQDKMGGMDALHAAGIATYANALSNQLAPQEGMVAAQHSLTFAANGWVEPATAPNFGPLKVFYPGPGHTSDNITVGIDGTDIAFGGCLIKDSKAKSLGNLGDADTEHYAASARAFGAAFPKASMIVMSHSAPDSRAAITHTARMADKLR

Activity % (negative = inhibition), inactive:
COCC1CN(C2CCC2)CC12CCN(Cc1scnc1C)CC2 (centres undefined) -0.607%
Cc1ccc(CN2CCC(CNc3cc(C4CC(O)C4)ncn3)CC2)o1 (centres undefined) 31.6%
CNC(=O)[C@@H]1C[C@H](Oc2ccccc2)CN1S(=O)(=O)c1ccc2c(c1)CCC2 29.7%
O=C(NC1CC(=O)N(CCCc2ccccc2)C1)c1ccoc1 (centres undefined) 3.75%
COc1ccc(C(=O)NCCn2c(C)cnc2-c2ccccc2)cn1 17.5%
Cc1cccc(-c2cn[nH]c2C2CCN(C(=O)c3cc(=O)[nH]c(=O)[nH]3)CC2)c1 7.1%
C[S+](=O)([O-])NCc1nnc2n1C(C(=O)NCc1ccc(Cl)cc1)CC2 (centres undefined) -1.43%
CN(Cc1cnn(-c2ccc(F)cc2)c1)c1cc(C2CC(O)C2)ncn1 (centres undefined) -6.16%
O=C(NCC(F)F)c1cc(-c2cccs2)c2cccn2n1 16.5% [at 57.5 µM]
CC(C)CN1CCN(C(=O)C2CCc3ncc(-c4ccc(F)cc4)n3C2)CC1 (centres undefined) 9.46%
CC(C)c1nc(-c2ccc(C(=O)N[C@@H]3COCC[C@@H]3OCC3CC3)cc2)no1 1.86%
Cc1ccc(S(=O)(=O)N2CCN(C3CCN(CCC(C)C)C3=O)CC2)cc1F (centres undefined) -2.41%
COCCN1CCCC1c1nc(C2CN(C(=O)c3ccccc3OC)C2)no1 (centres undefined) 25.2%
Cc1cc(CN2C[C@@H](COCC3CC3)[C@H](c3ccccn3)C2)n(C)n1 -0.74%
Cc1ccc(C)c(NC(=O)Cn2ccn3nc4c(c3c2=O)CCCCC4)c1 -7.69%
CCNC(=O)N1CCC(Oc2ncccc2C(=O)N2CCCCC2)C1 (centres undefined) -4.74%
O=C(c1nc(-c2ccsc2)c2cnccn12)N1CCCC1 -1.41% [at 57.5 µM]
CC(C(=O)N1CCc2onc(-c3ccc(F)c(F)c3)c2C1)n1ccnc1 (centres undefined) 15.2%
Cc1cnccc1CN(C)C(=O)c1cc(COc2ccc(-n3cncn3)cc2)on1 0.341%
O=C(c1ccc2c(c1)OCCO2)N1CCC(Cn2cc(CCO)nn2)CC1 -2.21%
CNC(=O)Nc1cccn2nc(-c3ccccc3)nc12 7.02%
Cc1ccc(C)c(OCc2cc(C(=O)N3CCC(N4CCSCC4)CC3)no2)c1 -0.985%
O=C([C@H](O)c1ccccc1)N1CCc2onc(-c3cccc4ccccc34)c2C1 3.32%
N#Cc1cccc(S(=O)(=O)N[C@@H]2CCOC[C@H]2OCc2cscn2)c1 2.28%
CCNc1ccnc(N2C[C@H]3CN(C(=O)N(C)C)C[C@@]3(C(=O)O)C2)n1 -0.749%
COc1ccc(-n2nc3n(c2=O)CCN([S+](=O)([O-])c2c(C)noc2C)C3)cc1 7.23%
CC(=O)N1CCC(Cc2ccc(CN(C(=O)CCc3ccccc3)C3CC3)cc2)CC1 6.05%
O=C(c1ccc(Cn2ccn3nc4c(c3c2=O)CCCC4)cc1)N1CCN(c2ccccn2)CC1 8%
O=C(c1cn(CC2CCCO2)nn1)N1CCN(c2cccc(C(F)(F)F)c2)CC1 (centres undefined) 6.76%
CC(C)NC(=O)c1ccnc(-c2cc(NC3CCCC3)nc3[nH]ccc23)c1 4.62%
CC(C)(C)c1cc(C(=O)NCc2cccnc2)nn2cccc12 1.11%
Cc1ccc(N2CCN(C(=O)c3cc(C(F)(F)F)nn3C)CC2=O)cc1 -0.0539%
COc1cccc(Nc2nccc3c(=O)cc(-c4ccccn4)oc23)c1 24.4% [at 57.5 µM]
O=C(CCC[C@@H]1[C@H]2CCCN3CCC[C@@H](CN1Cc1ccccc1)[C@@H]23)Nc1cccnc1 -4.45%
Cc1cnc(C(=O)NC2C[C@H]3CC[C@@H](C2)N3C(=O)c2ccccc2C)cn1 (some centres undefined) 11.4%
Cc1nnc([C@H]2CCN(C(=O)c3ccccc3)C2)o1 -0.916% [at 77.1 µM]
Cc1cc(F)ccc1-c1[nH]nc2ncc(-c3ccnn3C)nc12 16.3% [at 57.5 µM]
Cc1cnc2c(C(=O)N3CCCn4nc(C(C)O)cc4C3)cnn2c1 (centres undefined) 8.4%
CN(c1ccccc1)c1ccc2ncn(C3CC3)c(=O)c2n1 44.6% [at 77.1 µM]
C[C@]1(O)CCN(C(=O)CCS(=O)(=O)c2ccccc2)C[C@@H]1O 0.636%
COCCOc1ccnc(-c2noc([C@@H]3CCCN3Cc3ccncc3)n2)c1 4.43% [at 57.5 µM]
O=C1NCCCCCCN(C(=O)c2ccco2)[C@H]2C[C@H](c3nc(-c4cnccn4)no3)C[C@@H]12 -8.38%
CC(C)CCNC(=O)C1CCCN(C2CCN(CCc3ccccc3)CC2)C1 (centres undefined) -1.79%
O=C(c1ccccc1OC(F)(F)F)N1CCC(c2n[nH]c(=O)n2-c2ccccc2)CC1 0.752%
CCCS(=O)(=O)N1C[C@@H]2C(=O)N(CCC3CCN(C(C)C)CC3)C(=O)[C@@H]2C1 -0.489%
O=C(Cc1ccccn1)NCCNC(=O)c1cccc(-c2ccc(C(F)(F)F)cc2)c1 28.6%
O=C1N(C2CCN(S(=O)(=O)c3cnc[nH]3)CC2)C(c2ccccc2)C12CCCC2 (centres undefined) -3.13%
COc1cccc(NC(=O)C2(C)CCc3cnc(NCc4ccccc4)nc32)c1 (centres undefined) 63.2% [at 57.5 µM]
O=C(N[C@H](c1ccccn1)C1CC(O)C1)c1cc(=O)n(-c2ccccc2)[nH]1 (some centres undefined) 5.44%
Cn1nnnc1C1CCCN(C(=O)c2ccc(F)cc2)C1 (centres undefined) 15.3%
CC1CCCN1C(=O)c1cc(-c2cnn(C(C)C)c2)nc2cc(F)ccc12 (centres undefined) 8.18%
CN(C)C(=O)CN1CCCC(N2CCN(c3cccc(C(F)(F)F)c3)CC2)C1 (centres undefined) 6.25%
CN(Cc1ccc(F)cc1)C(=O)c1cn(Cc2ccccc2C(F)(F)F)nn1 9.34%
CC(C)Oc1cccc(-c2nnc(CCC(=O)NCCc3cccs3)c(=O)[nH]2)c1 23.7%

Three records picked at random from the list so far:
Activity % (negative = inhibition), inactive:
CCNC(=O)N1CCC(Oc2ncccc2C(=O)N2CCCCC2)C1 (centres undefined) -4.74%
CC(C)CN1CCN(C(=O)C2CCc3ncc(-c4ccc(F)cc4)n3C2)CC1 (centres undefined) 9.46%
Cc1ccc(CN2CCC(CNc3cc(C4CC(O)C4)ncn3)CC2)o1 (centres undefined) 31.6%

— PubChem BioAssay AID1794845 (National Center for Advancing Translational Sciences (NCATS), 2023)
